The record followed here is article doi:10.1101/495820.

For at least one entry, the source does not settle the construct or the ends of the probe. The comparison behind a weaker result is the experiment's own reference, which may not be listed here. Tags and fusion partners may be left off the protein sequences shown.

The data set deals with T1, SmcH-CC100(3A-hng) K666A,K667A,K668A (Bacillus subtilis) (UniProt P51834).
T1 sequence (looked up, limits assumed): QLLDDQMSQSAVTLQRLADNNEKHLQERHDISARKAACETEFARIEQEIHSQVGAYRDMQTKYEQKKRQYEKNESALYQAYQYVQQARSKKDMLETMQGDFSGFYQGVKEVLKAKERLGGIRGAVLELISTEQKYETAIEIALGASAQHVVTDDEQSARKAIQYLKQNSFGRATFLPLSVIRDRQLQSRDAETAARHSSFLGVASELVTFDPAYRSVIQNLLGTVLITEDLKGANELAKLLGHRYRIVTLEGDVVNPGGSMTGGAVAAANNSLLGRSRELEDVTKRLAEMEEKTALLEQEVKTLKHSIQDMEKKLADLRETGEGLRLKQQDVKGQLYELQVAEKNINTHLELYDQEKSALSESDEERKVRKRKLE
The data set can be described thus: fluorescence anisotropy.

Consider “TTAGTTGTTCGTAGTGCTCGTCTGGCTCTGGATTACCCGC (double strand) [40 bp random-sequence dsDNA]”, for which the binding result is recorded as “binds more weakly”.
